PubChem BioAssay AID1259405 – NCATS, 2018

- Aim: 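Knock-downs that lift recombinant protein yield in hamster ovary cells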 (primary screen)
- Cell system: Chinese hamster CHO-K1 ovary cells with stable secreted eGFP expression
- Reagent: single siRNA against mouse genes, 0.8 pmol siRNA per well (2 µl of 400 nM stock)
- Timing: 3 days
- Measurement: 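Percent of the per-plate non-targeting control median for intracellular GFP per well by laser scanning cytometry and for cell viability by ATP luminescence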
- Direction: GFP, % of control: higher = more GFP per well, higher productivity; viability (ATP), % of control: higher = more viable cells (more ATP)
- Hit rule: 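a knock-down is called active if GFP reaches 120% or more of non-targeting control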
The whole screen tested about 50,000 reagents; this is an unselected part. Over the whole deposit, about 4,000 (8%) were called active. 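Mouse siRNA library applied to hamster cells; one well for each siRNA.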 The numbers tell different reagents against one gene apart.

| gene symbol | reagent | GFP, % of control | viability (ATP), % of control | Outcome |
| --- | --- | --- | --- | --- |
| Tmem185b (transmembrane protein 185B) | 1 | 55.2 | 66.3 | inactive |
| Tmem185b (transmembrane protein 185B) | 2 | 67.4 | 29.8 | inactive |
| Tmem185b (transmembrane protein 185B) | 3 | 71.1 | 65.1 | inactive |
| Sf3a1 (splicing factor 3a, subunit 1) | 1 | 60 | 49.7 | inactive |
| Sf3a1 (splicing factor 3a, subunit 1) | 2 | 73.4 | 65.2 | inactive |
| Sf3a1 (splicing factor 3a, subunit 1) | 3 | 108 | 72.9 | inactive |
| Jmjd4 (jumonji domain containing 4) | 1 | 93.3 | 56.9 | inactive |
| Jmjd4 (jumonji domain containing 4) | 2 | 64.6 | 83 | inactive |
| Jmjd4 (jumonji domain containing 4) | 3 | 76.7 | 109 | inactive |
| Endog (endonuclease G) | 1 | 106 | 89.4 | inactive |
| Endog (endonuclease G) | 2 | 83.7 | 95.2 | inactive |
| Endog (endonuclease G) | 3 | 62.8 | 87.2 | inactive |
| Or2y15 (olfactory receptor family 2 subfamily Y member 15) | 1 | 53.3 | 43.7 | inactive |
| Or2y15 (olfactory receptor family 2 subfamily Y member 15) | 2 | 114 | 19.7 | inactive |
| Or2y15 (olfactory receptor family 2 subfamily Y member 15) | 3 | 86.7 | 57.8 | inactive |
| Rilp (Rab interacting lysosomal protein) | 1 | 133 | 92.8 | active |
| Rilp (Rab interacting lysosomal protein) | 2 | 56.6 | 75.6 | inactive |
| Casz1 (castor zinc finger 1) | 1 | 51 | 50.3 | inactive |
| Casz1 (castor zinc finger 1) | 2 | 88.9 | 97.3 | inactive |
| Casz1 (castor zinc finger 1) | 3 | 89.3 | 75.1 | inactive |
| Poldip2 (polymerase (DNA-directed), delta interacting protein 2) | 1 | 74.6 | 88.9 | inactive |
| Poldip2 (polymerase (DNA-directed), delta interacting protein 2) | 2 | 119 | 81.9 | inactive |
| Poldip2 (polymerase (DNA-directed), delta interacting protein 2) | 3 | 55.4 | 71.3 | inactive |
| Krt32 (keratin 32) | 1 | 10.5 | 75.7 | inactive |
| Krt32 (keratin 32) | 2 | 44.7 | 50.6 | inactive |
| Gng10 (guanine nucleotide binding protein (G protein), gamma 10) | 1 | 118 | 87.5 | inactive |
| Gng10 (guanine nucleotide binding protein (G protein), gamma 10) | 2 | 91.2 | 84 | inactive |
| Gng10 (guanine nucleotide binding protein (G protein), gamma 10) | 3 | 27.7 | 33.8 | inactive |
| Med22 (mediator complex subunit 22) | 1 | 129 | 69.8 | active |
| Med22 (mediator complex subunit 22) | 2 | 93.3 | 69.9 | inactive |
| Med22 (mediator complex subunit 22) | 3 | 109 | 75.8 | inactive |
| Phf10 (PHD finger protein 10) | 1 | 97.8 | 132 | inactive |
| Phf10 (PHD finger protein 10) | 2 | 79.4 | 88.3 | inactive |
| Unc93b1 (unc-93 homolog B1, TLR signaling regulator) | 1 | 76.6 | 71.4 | inactive |
| Unc93b1 (unc-93 homolog B1, TLR signaling regulator) | 2 | 40 | 76 | inactive |
| Unc93b1 (unc-93 homolog B1, TLR signaling regulator) | 3 | 56.7 | 64.6 | inactive |
| Hdgfl1 (HDGF like 1) | 1 | 19.7 | 47.8 | inactive |
| Hdgfl1 (HDGF like 1) | 2 | 51.4 | 47 | inactive |
| Hdgfl1 (HDGF like 1) | 3 | 84.2 | 67.9 | inactive |
| Glt1d1 (glycosyltransferase 1 domain containing 1) | 1 | 89.1 | 71.4 | inactive |
| Glt1d1 (glycosyltransferase 1 domain containing 1) | 2 | 75.5 | 77 | inactive |
| Glt1d1 (glycosyltransferase 1 domain containing 1) | 3 | 70.1 | 74.2 | inactive |
| Cacng7 (calcium channel, voltage-dependent, gamma subunit 7) | 1 | 37.2 | 58.4 | inactive |
| Cacng7 (calcium channel, voltage-dependent, gamma subunit 7) | 2 | 76.8 | 84.6 | inactive |
| Cacng7 (calcium channel, voltage-dependent, gamma subunit 7) | 3 | 68.2 | 71.8 | inactive |
| Lgals1 (lectin, galactose binding, soluble 1) | 1 | 78.4 | 56.6 | inactive |
| Lgals1 (lectin, galactose binding, soluble 1) | 2 | 77.1 | 69.8 | inactive |
| Lgals1 (lectin, galactose binding, soluble 1) | 3 | 92 | 39 | inactive |
| Aldh5a1 (aldhehyde dehydrogenase family 5, subfamily A1) | 1 | 105 | 102 | inactive |
| Aldh5a1 (aldhehyde dehydrogenase family 5, subfamily A1) | 2 | 76 | 76.4 | inactive |
| Aldh5a1 (aldhehyde dehydrogenase family 5, subfamily A1) | 3 | 92.3 | 91.5 | inactive |
| Serpinb13 | 1 | 65.1 | 84.7 | inactive |
| Serpinb13 | 2 | 81.1 | 83 | inactive |
| Serpinb13 | 3 | 52.1 | 90.4 | inactive |
| Ptov1 (prostate tumor over expressed gene 1) | 1 | 52.2 | 75.9 | inactive |
| Ptov1 (prostate tumor over expressed gene 1) | 2 | 71.3 | 90.4 | inactive |
| Ptov1 (prostate tumor over expressed gene 1) | 3 | 90.9 | 98.6 | inactive |
| P2ry12 (purinergic receptor P2Y, G-protein coupled 12) | 1 | 83.9 | 68.4 | inactive |
| P2ry12 (purinergic receptor P2Y, G-protein coupled 12) | 2 | 67 | 71.5 | inactive |
| P2ry12 (purinergic receptor P2Y, G-protein coupled 12) | 3 | 118 | 86 | inactive |
| Rimkla (ribosomal modification protein rimK-like family member A) | 1 | 62.5 | 73.5 | inactive |
| Rimkla (ribosomal modification protein rimK-like family member A) | 2 | 85.2 | 98.5 | inactive |
| Rimkla (ribosomal modification protein rimK-like family member A) | 3 | 75.6 | 105 | inactive |
| Dipk1a (divergent protein kinase domain 1A) | 1 | 32.8 | 58.3 | inactive |
| Dipk1a (divergent protein kinase domain 1A) | 2 | 63.1 | 55.8 | inactive |
| Dipk1a (divergent protein kinase domain 1A) | 3 | 66.9 | 90.3 | inactive |
| Saraf (store-operated calcium entry-associated regulatory factor) | 1 | 77 | 71.5 | inactive |
| Saraf (store-operated calcium entry-associated regulatory factor) | 2 | 57 | 57.4 | inactive |
| Saraf (store-operated calcium entry-associated regulatory factor) | 3 | 70.8 | 65.8 | inactive |
| Itprid2 (ITPR interacting domain containing 2) | 1 | 45.1 | 89.2 | inactive |
| Itprid2 (ITPR interacting domain containing 2) | 2 | 86.3 | 83.4 | inactive |
| Itprid2 (ITPR interacting domain containing 2) | 3 | 55.5 | 93.8 | inactive |
| Syt4 (synaptotagmin IV) | 1 | 113 | 118 | inactive |
| Syt4 (synaptotagmin IV) | 2 | 94.3 | 84.4 | inactive |
| Utp14a (UTP14A small subunit processome component) | 1 | 66.7 | 36.4 | inactive |
| Utp14a (UTP14A small subunit processome component) | 2 | 37.5 | 26.8 | inactive |
| Utp14a (UTP14A small subunit processome component) | 3 | 67.5 | 95.8 | inactive |
| Cenatac (centrosomal AT-AC splicing factor) | 1 | 50.6 | 56.9 | inactive |
| Cenatac (centrosomal AT-AC splicing factor) | 2 | 98.2 | 84.1 | inactive |
| Cenatac (centrosomal AT-AC splicing factor) | 3 | 104 | 102 | inactive |
| Sft2d1 (SFT2 domain containing 1) | 1 | 68.3 | 73.8 | inactive |
| Sft2d1 (SFT2 domain containing 1) | 2 | 75.5 | 92.6 | inactive |
| Sft2d1 (SFT2 domain containing 1) | 3 | 127 | 93.8 | active |
| Ints15 (integrator complex subunit 15) | 1 | 67.5 | 88 | inactive |
| Ints15 (integrator complex subunit 15) | 2 | 38.7 | 35.5 | inactive |
| Ints15 (integrator complex subunit 15) | 3 | 112 | 60.1 | inactive |

Laid out differently: 12 of the entries above.
gene symbol,reagent,"GFP, % of control","viability (ATP), % of control",Outcome
Utp14a (UTP14A small subunit processome component),1,66.7,36.4,inactive
Utp14a (UTP14A small subunit processome component),2,37.5,26.8,inactive
Utp14a (UTP14A small subunit processome component),3,67.5,95.8,inactive
Cenatac (centrosomal AT-AC splicing factor),1,50.6,56.9,inactive
Cenatac (centrosomal AT-AC splicing factor),2,98.2,84.1,inactive
Cenatac (centrosomal AT-AC splicing factor),3,104,102,inactive
Sft2d1 (SFT2 domain containing 1),1,68.3,73.8,inactive
Sft2d1 (SFT2 domain containing 1),2,75.5,92.6,inactive
Sft2d1 (SFT2 domain containing 1),3,127,93.8,active
Ints15 (integrator complex subunit 15),1,67.5,88,inactive
Ints15 (integrator complex subunit 15),2,38.7,35.5,inactive
Ints15 (integrator complex subunit 15),3,112,60.1,inactive
